By UniProt entry, the sequences of proteins in these tests, tags left out.
UniProt Q01860: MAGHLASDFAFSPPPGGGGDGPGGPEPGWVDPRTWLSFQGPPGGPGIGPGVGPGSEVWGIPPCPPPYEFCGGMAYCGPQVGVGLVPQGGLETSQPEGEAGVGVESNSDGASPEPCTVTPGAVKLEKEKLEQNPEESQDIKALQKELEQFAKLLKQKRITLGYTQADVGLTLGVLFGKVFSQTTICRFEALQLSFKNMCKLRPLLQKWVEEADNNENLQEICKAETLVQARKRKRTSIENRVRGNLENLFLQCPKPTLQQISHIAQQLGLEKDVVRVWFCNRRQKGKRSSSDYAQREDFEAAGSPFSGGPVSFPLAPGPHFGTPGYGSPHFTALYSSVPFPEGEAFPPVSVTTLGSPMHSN
UniProt Q02880: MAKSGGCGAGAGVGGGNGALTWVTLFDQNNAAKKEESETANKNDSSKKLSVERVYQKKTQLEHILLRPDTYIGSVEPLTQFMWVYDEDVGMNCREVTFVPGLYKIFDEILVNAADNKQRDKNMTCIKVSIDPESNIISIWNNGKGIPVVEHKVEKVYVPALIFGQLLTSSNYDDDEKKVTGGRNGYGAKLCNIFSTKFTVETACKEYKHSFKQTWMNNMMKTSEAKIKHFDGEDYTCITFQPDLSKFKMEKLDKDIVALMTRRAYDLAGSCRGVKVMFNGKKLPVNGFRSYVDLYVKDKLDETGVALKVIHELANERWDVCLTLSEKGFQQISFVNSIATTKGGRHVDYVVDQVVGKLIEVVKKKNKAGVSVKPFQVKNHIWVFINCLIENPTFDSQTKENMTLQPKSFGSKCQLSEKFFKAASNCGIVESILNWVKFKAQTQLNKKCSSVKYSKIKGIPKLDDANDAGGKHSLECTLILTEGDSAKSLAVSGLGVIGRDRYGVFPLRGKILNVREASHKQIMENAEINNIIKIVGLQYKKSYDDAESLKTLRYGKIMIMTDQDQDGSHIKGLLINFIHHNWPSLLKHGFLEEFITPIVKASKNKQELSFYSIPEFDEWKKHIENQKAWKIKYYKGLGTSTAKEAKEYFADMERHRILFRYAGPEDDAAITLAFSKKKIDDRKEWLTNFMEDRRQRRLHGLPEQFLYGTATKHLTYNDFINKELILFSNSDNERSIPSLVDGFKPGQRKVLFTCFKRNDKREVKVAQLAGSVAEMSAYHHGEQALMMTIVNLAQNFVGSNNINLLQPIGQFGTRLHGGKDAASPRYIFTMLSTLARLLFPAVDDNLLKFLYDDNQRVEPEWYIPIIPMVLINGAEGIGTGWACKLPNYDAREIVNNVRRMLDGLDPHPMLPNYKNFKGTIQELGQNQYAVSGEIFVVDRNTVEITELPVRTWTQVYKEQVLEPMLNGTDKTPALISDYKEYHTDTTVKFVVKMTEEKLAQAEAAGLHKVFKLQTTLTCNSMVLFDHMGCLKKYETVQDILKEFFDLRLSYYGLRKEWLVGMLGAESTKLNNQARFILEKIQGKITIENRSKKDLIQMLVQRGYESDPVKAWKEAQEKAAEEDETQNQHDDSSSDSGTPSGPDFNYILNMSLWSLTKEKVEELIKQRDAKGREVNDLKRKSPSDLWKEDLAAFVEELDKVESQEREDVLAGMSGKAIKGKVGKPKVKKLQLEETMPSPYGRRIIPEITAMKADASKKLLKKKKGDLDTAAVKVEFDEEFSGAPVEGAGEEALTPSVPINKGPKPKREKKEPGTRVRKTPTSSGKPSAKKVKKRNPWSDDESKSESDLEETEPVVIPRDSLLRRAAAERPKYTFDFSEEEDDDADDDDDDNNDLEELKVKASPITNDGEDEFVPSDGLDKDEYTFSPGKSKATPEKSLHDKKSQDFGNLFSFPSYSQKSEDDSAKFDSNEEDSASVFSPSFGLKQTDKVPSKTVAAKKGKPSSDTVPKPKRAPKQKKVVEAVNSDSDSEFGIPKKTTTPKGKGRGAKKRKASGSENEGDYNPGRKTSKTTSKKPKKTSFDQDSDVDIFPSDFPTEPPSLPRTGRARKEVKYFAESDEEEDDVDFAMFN
UniProt P51532: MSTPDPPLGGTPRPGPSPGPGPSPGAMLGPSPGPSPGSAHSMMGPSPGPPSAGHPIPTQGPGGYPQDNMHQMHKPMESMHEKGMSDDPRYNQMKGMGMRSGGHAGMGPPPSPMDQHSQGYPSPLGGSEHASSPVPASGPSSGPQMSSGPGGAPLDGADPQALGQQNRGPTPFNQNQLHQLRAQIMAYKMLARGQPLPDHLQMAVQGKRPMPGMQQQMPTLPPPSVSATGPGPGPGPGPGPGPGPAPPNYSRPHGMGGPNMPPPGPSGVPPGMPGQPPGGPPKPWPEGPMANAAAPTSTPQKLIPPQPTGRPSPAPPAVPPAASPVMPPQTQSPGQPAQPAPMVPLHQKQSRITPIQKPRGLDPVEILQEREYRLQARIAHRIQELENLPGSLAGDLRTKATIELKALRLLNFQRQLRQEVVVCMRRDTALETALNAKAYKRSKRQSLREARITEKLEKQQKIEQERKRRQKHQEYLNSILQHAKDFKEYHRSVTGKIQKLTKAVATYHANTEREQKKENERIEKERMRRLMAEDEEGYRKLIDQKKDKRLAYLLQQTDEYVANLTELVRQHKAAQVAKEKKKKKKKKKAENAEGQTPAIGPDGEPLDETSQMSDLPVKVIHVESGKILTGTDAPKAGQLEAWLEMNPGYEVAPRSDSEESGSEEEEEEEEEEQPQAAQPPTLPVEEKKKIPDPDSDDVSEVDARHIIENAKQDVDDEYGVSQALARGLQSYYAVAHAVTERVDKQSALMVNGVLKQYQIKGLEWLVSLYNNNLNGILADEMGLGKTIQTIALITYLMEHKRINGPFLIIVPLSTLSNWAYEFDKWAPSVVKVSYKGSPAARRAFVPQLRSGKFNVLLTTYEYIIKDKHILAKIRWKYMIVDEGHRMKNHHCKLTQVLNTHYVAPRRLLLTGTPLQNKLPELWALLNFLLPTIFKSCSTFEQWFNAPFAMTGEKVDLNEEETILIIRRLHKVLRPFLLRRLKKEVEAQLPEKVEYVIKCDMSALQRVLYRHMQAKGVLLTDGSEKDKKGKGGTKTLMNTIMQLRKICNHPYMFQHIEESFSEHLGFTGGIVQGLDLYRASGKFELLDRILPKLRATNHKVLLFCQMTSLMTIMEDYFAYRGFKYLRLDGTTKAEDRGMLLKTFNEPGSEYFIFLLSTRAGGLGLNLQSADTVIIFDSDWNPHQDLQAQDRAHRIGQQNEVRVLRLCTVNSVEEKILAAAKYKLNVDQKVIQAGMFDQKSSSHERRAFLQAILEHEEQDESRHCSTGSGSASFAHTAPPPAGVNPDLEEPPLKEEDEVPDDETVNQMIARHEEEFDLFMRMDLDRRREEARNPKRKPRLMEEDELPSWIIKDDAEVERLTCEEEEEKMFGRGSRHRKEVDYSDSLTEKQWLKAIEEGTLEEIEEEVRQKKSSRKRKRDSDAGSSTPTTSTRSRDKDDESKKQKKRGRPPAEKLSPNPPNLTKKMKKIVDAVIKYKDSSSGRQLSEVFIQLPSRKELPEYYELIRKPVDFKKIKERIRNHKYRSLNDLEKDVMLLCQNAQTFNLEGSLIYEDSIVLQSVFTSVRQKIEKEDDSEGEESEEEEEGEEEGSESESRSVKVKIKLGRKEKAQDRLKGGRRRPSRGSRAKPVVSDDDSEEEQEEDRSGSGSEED
UniProt P52701: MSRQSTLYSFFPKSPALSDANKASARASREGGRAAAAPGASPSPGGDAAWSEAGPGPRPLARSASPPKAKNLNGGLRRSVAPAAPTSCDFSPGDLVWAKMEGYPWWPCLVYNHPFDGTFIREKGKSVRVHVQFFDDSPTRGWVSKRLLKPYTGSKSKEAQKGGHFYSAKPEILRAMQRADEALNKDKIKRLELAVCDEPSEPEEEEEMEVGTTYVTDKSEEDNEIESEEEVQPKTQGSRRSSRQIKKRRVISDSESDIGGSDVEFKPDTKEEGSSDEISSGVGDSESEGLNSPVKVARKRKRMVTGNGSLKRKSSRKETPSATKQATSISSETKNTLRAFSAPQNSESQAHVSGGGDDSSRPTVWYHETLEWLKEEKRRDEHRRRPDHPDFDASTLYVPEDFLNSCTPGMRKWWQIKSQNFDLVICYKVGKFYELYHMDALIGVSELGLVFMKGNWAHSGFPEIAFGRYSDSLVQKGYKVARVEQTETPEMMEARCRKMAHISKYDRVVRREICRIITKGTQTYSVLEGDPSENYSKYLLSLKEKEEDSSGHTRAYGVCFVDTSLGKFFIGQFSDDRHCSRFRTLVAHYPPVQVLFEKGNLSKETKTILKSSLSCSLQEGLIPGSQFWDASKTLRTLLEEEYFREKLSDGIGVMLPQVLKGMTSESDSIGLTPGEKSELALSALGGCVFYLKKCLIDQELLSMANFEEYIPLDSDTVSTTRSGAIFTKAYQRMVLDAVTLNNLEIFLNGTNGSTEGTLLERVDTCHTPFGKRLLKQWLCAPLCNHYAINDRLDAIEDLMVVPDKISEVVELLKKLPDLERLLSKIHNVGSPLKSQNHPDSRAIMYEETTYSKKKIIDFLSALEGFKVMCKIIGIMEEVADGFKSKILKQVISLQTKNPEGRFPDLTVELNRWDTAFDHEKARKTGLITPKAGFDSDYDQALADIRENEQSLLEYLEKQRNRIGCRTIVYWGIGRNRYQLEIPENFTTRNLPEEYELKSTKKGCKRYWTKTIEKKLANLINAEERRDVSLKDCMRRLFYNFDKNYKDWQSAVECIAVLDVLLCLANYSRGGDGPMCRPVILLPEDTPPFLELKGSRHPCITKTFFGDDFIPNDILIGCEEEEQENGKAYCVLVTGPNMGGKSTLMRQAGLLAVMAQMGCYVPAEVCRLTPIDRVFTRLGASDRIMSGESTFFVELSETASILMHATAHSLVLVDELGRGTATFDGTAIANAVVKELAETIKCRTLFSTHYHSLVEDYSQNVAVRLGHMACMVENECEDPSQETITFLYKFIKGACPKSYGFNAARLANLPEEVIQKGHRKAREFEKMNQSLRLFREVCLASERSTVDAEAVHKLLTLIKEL
UniProt P51531: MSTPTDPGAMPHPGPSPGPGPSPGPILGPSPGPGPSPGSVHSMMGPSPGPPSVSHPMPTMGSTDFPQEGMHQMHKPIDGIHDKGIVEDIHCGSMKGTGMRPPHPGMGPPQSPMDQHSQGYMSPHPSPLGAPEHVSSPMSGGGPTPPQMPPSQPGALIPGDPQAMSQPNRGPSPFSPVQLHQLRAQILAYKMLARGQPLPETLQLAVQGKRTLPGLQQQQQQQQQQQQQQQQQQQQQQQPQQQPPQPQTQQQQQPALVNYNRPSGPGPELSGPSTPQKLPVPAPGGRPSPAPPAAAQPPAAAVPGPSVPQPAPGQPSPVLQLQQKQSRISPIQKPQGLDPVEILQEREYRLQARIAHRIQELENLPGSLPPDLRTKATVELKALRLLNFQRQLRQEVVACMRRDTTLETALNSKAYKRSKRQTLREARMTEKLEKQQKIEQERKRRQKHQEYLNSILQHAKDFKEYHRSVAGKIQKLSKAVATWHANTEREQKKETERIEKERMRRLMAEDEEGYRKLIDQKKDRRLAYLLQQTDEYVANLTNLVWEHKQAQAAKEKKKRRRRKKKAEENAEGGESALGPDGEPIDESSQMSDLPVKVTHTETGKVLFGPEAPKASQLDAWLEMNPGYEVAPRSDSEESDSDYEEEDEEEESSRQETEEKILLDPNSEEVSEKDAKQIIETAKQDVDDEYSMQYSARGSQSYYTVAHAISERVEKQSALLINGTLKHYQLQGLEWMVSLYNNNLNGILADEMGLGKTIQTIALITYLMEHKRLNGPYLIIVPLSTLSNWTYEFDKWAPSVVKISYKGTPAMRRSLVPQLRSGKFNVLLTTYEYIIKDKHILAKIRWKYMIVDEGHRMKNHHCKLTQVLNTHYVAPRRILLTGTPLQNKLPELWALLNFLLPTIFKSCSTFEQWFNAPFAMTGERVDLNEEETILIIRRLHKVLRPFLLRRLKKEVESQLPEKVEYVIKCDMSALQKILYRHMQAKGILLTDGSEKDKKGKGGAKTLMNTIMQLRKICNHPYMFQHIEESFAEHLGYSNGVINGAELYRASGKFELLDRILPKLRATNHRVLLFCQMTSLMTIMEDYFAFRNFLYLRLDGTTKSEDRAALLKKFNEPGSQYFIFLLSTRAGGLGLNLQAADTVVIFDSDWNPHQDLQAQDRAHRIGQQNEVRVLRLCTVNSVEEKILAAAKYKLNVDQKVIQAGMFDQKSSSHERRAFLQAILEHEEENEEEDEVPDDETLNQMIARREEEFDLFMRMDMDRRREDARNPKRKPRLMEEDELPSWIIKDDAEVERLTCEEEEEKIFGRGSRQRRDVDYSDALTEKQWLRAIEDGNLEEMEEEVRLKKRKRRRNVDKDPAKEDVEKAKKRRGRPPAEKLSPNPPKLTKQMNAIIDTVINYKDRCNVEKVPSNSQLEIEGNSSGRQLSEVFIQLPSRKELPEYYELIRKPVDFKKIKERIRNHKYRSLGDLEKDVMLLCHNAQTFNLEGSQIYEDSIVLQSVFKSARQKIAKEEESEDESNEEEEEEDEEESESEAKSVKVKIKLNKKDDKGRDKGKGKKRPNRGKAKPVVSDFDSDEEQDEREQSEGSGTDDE

In PMC8390644:

B1: L1TD1 (protein, UniProt Q5T7N2 1-865)
chain: MSDVSTSVQSKFARLAKKKENITYMKREQLTETDKDIAPVLDLKCKDVSAIMNKFKVLMEIQDLMFEEMRETLKNDLKAVLGGKATIPEVKNSENSSSRTEFQQIINLALQKTGMVGKIEGENSKIGDDNENLTFKLEVNELSGKLDNTNEYNSNDGKKLPQGESRSYEVMGSMEETLCNIDDRDGNRNVHLEFTERESRKDGEDEFVKEMREERKFQKLKNKEEVLKASREEKVLMDEGAVLTLVADLSSATLDISKQWSNVFNILRENDFEPKFLCEVKLAFKCDGEIKTFSDLQSLRKFASQKSSVKELLKDVLPQKEEINQGGRKYGIQEKRDKTLIDSKHRAGEITSDGLSFLFLKEVKVAKPEEMKNLETQEEEFSELEELDEEASGMEDDEDTSGLEEEEEEPSGLEEEEEEEASGLEEDEASGLEEEEEQTSEQDSTFQGHTLVDAKHEVEITSDGMETTFIDSVEDSESEEEEEGKSSETGKVKTTSLTEKKASRRQKEIPFSYLVGDSGKKKLVKHQVVHKTQEEEETAVPTSQGTGTPCLTLCLASPSKSLEMSHDEHKKHSHTNLSISTGVTKLKKTEEKKHRTLHTEELTSKEADLTEETEENLRSSVINSIREIKEEIGNLKSSHSGVLEIENSVDDLSSRMDILEERIDSLEDQIEEFSKDTMQMTKQIISKERQRDIEERSRSCNIRLIGIPEKESYENRAEDIIKEIIDENFAELKKGSSLEIVSACRVPSKIDEKRLTPRHILVKFWNSSDKEKIIRASRERREITYQGTRIRLTADLSLDTLDARSKWSNVFKVLLEKGFNPRILYPAKMAFDFRGKTKVFLSIEEFRDYVLHMPTLRELLGNNIP
B2: NLRP7 (protein, UniProt Q8WX94 1-980)
chain: MTSPQLEWTLQTLLEQLNEDELKSFKSLLWAFPLEDVLQKTPWSEVEEADGKKLAEILVNTSSENWIRNATVNILEEMNLTELCKMAKAEMMEDGQVQEIDNPELGDAEEDSELAKPGEKEGWRNSMEKQSLVWKNTFWQGDIDNFHDDVTLRNQRFIPFLNPRTPRKLTPYTVVLHGPAGVGKTTLAKKCMLDWTDCNLSPTLRYAFYLSCKELSRMGPCSFAELISKDWPELQDDIPSILAQAQRILFVVDGLDELKVPPGALIQDICGDWEKKKPVPVLLGSLLKRKMLPRAALLVTTRPRALRDLQLLAQQPIYVRVEGFLEEDRRAYFLRHFGDEDQAMRAFELMRSNAALFQLGSAPAVCWIVCTTLKLQMEKGEDPVPTCLTRTGLFLRFLCSRFPQGAQLRGALRTLSLLAAQGLWAQMSVFHREDLERLGVQESDLRLFLDGDILRQDRVSKGCYSFIHLSFQQFLTALFYALEKEEGEDRDGHAWDIGDVQKLLSGEERLKNPDLIQVGHFLFGLANEKRAKELEATFGCRMSPDIKQELLQCKAHLHANKPLSVTDLKEVLGCLYESQEEELAKVVVAPFKEISIHLTNTSEVMHCSFSLKHCQDLQKLSLQVAKGVFLENYMDFELDIEFERCTYLTIPNWARQDLRSLRLWTDFCSLFSSNSNLKFLEVKQSFLSDSSVRILCDHVTRSTCHLQKVEIKNVTPDTAYRDFCLAFIGKKTLTHLTLAGHIEWERTMMLMLCDLLRNHKCNLQYLRLGGHCATPEQWAEFFYVLKANQSLKHLRLSANVLLDEGAMLLYKTMTRPKHFLQMLSLENCRLTEASCKDLAAVLVVSKKLTHLCLAKNPIGDTGVKFLCEGLSYPDCKLQTLVLQQCSITKLGCRYLSEALQEACSLTNLDLSINQIARGLWILCQALENPNCNLKHLRLKTYETNLEIKKLLEEVKEKNPKLTIDCNASGATAPPCCDFFC
B3: SMC1A (protein, UniProt Q14683 1-1233)
chain: MGFLKLIEIENFKSYKGRQIIGPFQRFTAIIGPNGSGKSNLMDAISFVLGEKTSNLRVKTLRDLIHGAPVGKPAANRAFVSMVYSEEGAEDRTFARVIVGGSSEYKINNKVVQLHEYSEELEKLGILIKARNFLVFQGAVESIAMKNPKERTALFEEISRSGELAQEYDKRKKEMVKAEEDTQFNYHRKKNIAAERKEAKQEKEEADRYQRLKDEVVRAQVQLQLFKLYHNEVEIEKLNKELASKNKEIEKDKKRMDKVEDELKEKKKELGKMMREQQQIEKEIKEKDSELNQKRPQYIKAKENTSHKIKKLEAAKKSLQNAQKHYKKRKGDMDELEKEMLSVEKARQEFEERMEEESQSQGRDLTLEENQVKKYHRLKEEASKRAATLAQELEKFNRDQKADQDRLDLEERKKVETEAKIKQKLREIEENQKRIEKLEEYITTSKQSLEEQKKLEGELTEEVEMAKRRIDEINKELNQVMEQLGDARIDRQESSRQQRKAEIMESIKRLYPGSVYGRLIDLCQPTQKKYQIAVTKVLGKNMDAIIVDSEKTGRDCIQYIKEQRGEPETFLPLDYLEVKPTDEKLRELKGAKLVIDVIRYEPPHIKKALQYACGNALVCDNVEDARRIAFGGHQRHKTVALDGTLFQKSGVISGGASDLKAKARRWDEKAVDKLKEKKERLTEELKEQMKAKRKEAELRQVQSQAHGLQMRLKYSQSDLEQTKTRHLALNLQEKSKLESELANFGPRINDIKRIIQSREREMKDLKEKMNQVEDEVFEEFCREIGVRNIREFEEEKVKRQNEIAKKRLEFENQKTRLGIQLDFEKNQLKEDQDKVHMWEQTVKKDENEIEKLKKEEQRHMKIIDETMAQLQDLKNQHLAKKSEVNDKNHEMEEIRKKLGGANKEMTHLQKEVTAIETKLEQKRSDRHNLLQACKMQDIKLPLSKGTMDDISQEEGSSQGEDSVSGSQRISSIYAREALIEIDYGDLCEDLKDAQAEEEIKQEMNTLQQKLNEQQSVLQRIAAPNMKAMEKLESVRDKFQETSDEFEAARKRAKKAKQAFEQIKKERFDRFNACFESVATNIDEIYKALSRNSSAQAFLGPENPEEPYLDGINYNCVAPGKRFRPMDNLSGGEKTVAALALLFAIHSYKPAPFFVLDEIDAALDNTNIGKVANYIKEQSTCNFQAIVISLKEEFYTKAESLIGVYPEQGDCVISKVLTFDLTKYPDANPNPNEQ
B4: BEND3 (protein, UniProt Q5T5X7 1-828)
chain: MNSTEFTEDVEEVLKSITVKVETEAEDAALDCSVNSRTSEKHSVDSVLTALQDSSKRKQLVSDGLLDSVPGVKRRRLIPEALLAGMRNRENSSPCQGNGEQAGRGRSLGNVWPGEEEPCNDATTPSYKKPLYGISHKIMEKKNPPSGDLLNVYELFEKANASNSPSSLRLLNEPQKRDCGSTGAGTDNDPNIYFLIQKMFYMLNTLTSNMSQLHSKVDLLSLEVSRIKKQVSPTEMVAKFQPPPEYQLTAAELKQIVDQSLSGGDLACRLLVQLFPELFSDVDFSRGCSACGFAAKRKLESLHLQLIRNYVEVYYPSVKDTAVWQAECLPQLNDFFSRFWAQREMEDSQPSGQVASFFEAEQVDPGHFLDNKDQEEALSLDRSSTIASDHVVDTQDLTEFLDEASSPGEFAVFLLHRLFPELFDHRKLGEQYSCYGDGGKQELDPQRLQIIRNYTEIYFPDMQEEEAWLQQCAQRINDELEGLGLDAGSEGDPPRDDCYDSSSLPDDISVVKVEDSFEGERPGRRSKKIWLVPIDFDKLEIPQPDFEVPGADCLLSKEQLRSIYESSLSIGNFASRLLVHLFPELFTHENLRKQYNCSGSLGKKQLDPSRIKLIRHYVQLLYPRAKNDRVWTLEFVGKLDERCRRRDTEQRRSYQQQRKVHVPGPECRDLTSYAINPERFREEFEGPPLPPERSSKDFCKIPLDELVVPSPDFPVPSPYLLSDKEVREIVQQSLSVGNFAARLLVRLFPELFTAENLRLQYNHSGACNKKQLDPTRLRLIRHYVEAVYPVEKMEEVWHYECIPSIDERCRRPNRKKCDILKKAKKVEK
B5: NLRP2 (protein, UniProt Q9NX02 1-1062)
chain: MVSSAQMGFNLQALLEQLSQDELSKFKYLITTFSLAHELQKIPHKEVDKADGKQLVEILTTHCDSYWVEMASLQVFEKMHRMDLSERAKDEVREAALKSFNKRKPLSLGITRKERPPLDVDEMLERFKTEAQAFTETKGNVICLGKEVFKGKKPDKDNRCRYILKTKFREMWKSWPGDSKEVQVMAERYKMLIPFSNPRVLPGPFSYTVVLYGPAGLGKTTLAQKLMLDWAEDNLIHKFKYAFYLSCRELSRLGPCSFAELVFRDWPELQDDIPHILAQARKILFVIDGFDELGAAPGALIEDICGDWEKKKPVPVLLGSLLNRVMLPKAALLVTTRPRALRDLRILAEEPIYIRVEGFLEEDRRAYFLRHFGDEDQAMRAFELMRSNAALFQLGSAPAVCWIVCTTLKLQMEKGEDPVPTCLTRTGLFLRFLCSRFPQGAQLRGALRTLSLLAAQGLWAQTSVLHREDLERLGVQESDLRLFLDGDILRQDRVSKGCYSFIHLSFQQFLTALFYTLEKEEEEDRDGHTWDIGDVQKLLSGVERLRNPDLIQAGYYSFGLANEKRAKELEATFGCRMSPDIKQELLRCDISCKGGHSTVTDLQELLGCLYESQEEELVKEVMAQFKEISLHLNAVDVVPSSFCVKHCRNLQKMSLQVIKENLPENVTASESDAEVERSQDDQHMLPFWTDLCSIFGSNKDLMGLAINDSFLSASLVRILCEQIASDTCHLQRVVFKNISPADAHRNLCLALRGHKTVTYLTLQGNDQDDMFPALCEVLRHPECNLRYLGLVSCSATTQQWADLSLALEVNQSLTCVNLSDNELLDEGAKLLYTTLRHPKCFLQRLSLENCHLTEANCKDLAAVLVVSRELTHLCLAKNPIGNTGVKFLCEGLRYPECKLQTLVLWNCDITSDGCCDLTKLLQEKSSLLCLDLGLNHIGVKGMKFLCEALRKPLCNLRCLWLWGCSIPPFSCEDLCSALSCNQSLVTLDLGQNPLGSSGVKMLFETLTCSSGTLRTLRLKIDDFNDELNKLLEEIEEKNPQLIIDTEKHHPWAERPSSHDFMI

What follows are molecules tested against OCT4^3xFLBio (human (endogenous in WIBR2 hESCs)) (UniProt Q01860) (assay: affinity purification with mass spectrometry; primed hESCs; nuclear extract dialysed against buffer D (100 mM KCl), Benzonase, washes in buffer D with 0.02% NP40; SA-IP and FLAG-IP of WIBR2-OCT4^3xFLBio against BirA control and OCT4 antibody IP against IgG in WIBR2 and WIBR3; hit in at least three of four MS experiments, CCP score with FDR cutoff 0.1).
“SNF2H (SMARCA5) (from UniProt O60264 1-1052)” was tested, and the binding was “binds”. For TOP2B (from UniProt Q02880 1-1626), the binding was “binds”. “SNF2L (SMARCA1) (from UniProt P28370 1-1042)” was tested, and the binding was “binds”. For “BRG1 (SMARCA4) (from UniProt P51532 1-1647)”, the binding was “binds”.

The molecules below were run against OCT4^3xFLBio (human (endogenous in WIBR2 hESCs)) (UniProt Q01860) (assay: affinity purification with mass spectrometry; naïve hESCs; nuclear extract dialysed against buffer D (100 mM KCl), Benzonase, washes in buffer D with 0.02% NP40; SA-IP and FLAG-IP of WIBR2-OCT4^3xFLBio against BirA control (2i/L/DOX+RI, KLF2 and NANOG transgenes) and OCT4 antibody IP against IgG in WIBR2 and WIBR3 (4i/L/A); hit in at least three of four MS experiments, CCP score with FDR cutoff 0.1).
MSH6 (from UniProt P52701 1-1360) was tested, and the binding was “binds”. “SNF2H (SMARCA5) (from UniProt O60264 1-1052)” was tested, and the binding was “binds”. EPPK1 (from UniProt P58107 1-5088) was tested, and the binding was “binds”. In the case of SMCHD1 (from UniProt A6NHR9 1-2005), the binding is reported as “binds”. For “BRM (SMARCA2) (from UniProt P51531 1-1590)”, the binding was “binds”. “BRG1 (SMARCA4) (from UniProt P51532 1-1647)” was tested, and the binding was “binds”.

Biological target: OCT4^3xFLBio (human (endogenous in WIBR2 hESCs)) (UniProt Q01860)
Assay: as above
Remark: another data set of the same source
B1 was tested, and the binding was “binds”. In the case of B2, the binding is reported as “binds”. B3 was tested, and the binding was “binds”. In the case of B4, the binding is reported as “binds”. B5 was tested, and the binding was “binds”.

These are yes or no findings as the source states them, for the method shown. Binding seen in cells or lysates may run through a third protein. Here binding means that the protein was enriched with, or labelled near, the bait; the list need not be complete.
